Some results were stated once for a whole list of compounds, not compound by compound. Some compounds share one range, which may span the group rather than tell each member.
Experiment: Dielectric constant of sunscreen oil phase (Scientifica Model 850 meter)
Format: physicochemical
Settings: oil phase with 5 g additive

## CCC(=O)OCCCCO [Butylene Glycol Monopropionate]
  dielectric constants of sunscreen compositions containing the additive: 8.0-8.1

— patent publication US20050013781A1, “Sunscreen composition” (Playtex Products, Inc., priority 2003, published 2005)
